Laboratory results: PMC9634086
Construct, isoform or probe ends are uncertain for at least one entry. Where a protein sequence is shown, tags need not be part of it.

Tested on: T1, ArcA (Dickeya oryzae EC1)
T1 sequence (looked up): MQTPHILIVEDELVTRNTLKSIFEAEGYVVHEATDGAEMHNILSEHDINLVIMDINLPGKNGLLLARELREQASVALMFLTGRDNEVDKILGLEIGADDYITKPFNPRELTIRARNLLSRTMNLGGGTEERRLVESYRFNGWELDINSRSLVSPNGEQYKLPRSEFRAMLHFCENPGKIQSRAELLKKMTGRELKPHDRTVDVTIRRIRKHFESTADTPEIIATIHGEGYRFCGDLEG
Assay: EMSA
Conditions: recombinant protein, residues 1-238, protein details: His (pET32a), probe letters rebuilt from the primers and the genome

[1] = 1-6 uM ArcA, 100x unlabeled competitor, […], binding buffer, pH and temperature not given, label: 3' biotin
[2] = 0.5 uM ArcB (no TM segments) added, enhanced affinity, ArcA 0.3-1.2 uM, […], binding buffer, pH and temperature not given, label: 3' biotin (Fig 8A), unlabeled (Fig 8B)
[3] = 1-6 uM ArcA, 100x unlabeled competitor, […], binding buffer, pH and temperature not given, label: 3' biotin (Fig 8A), unlabeled (Fig 8B)
[4] = 1-6 uM ArcA, 100x unlabeled competitor, EMSA: 20 fmol biotin-labeled DNA, 0/1/3/6 uM ArcA, 10 ul, 6% native PAGE in TBE, 0-1.2 uM ArcA or ArcA-deltaREC, 0.5 uM ArcB, 5% native PAGE in TAE, label: 3' biotin

Sequence | binding result [1] | binding result [2] | binding result [3] | binding result [4]
ATTCAGTGCTGCTGTGGTTTCAGCTATATTCATCATCGTGAAATATTTACCATTCAATATACTTAACGAATTCTCAGTAGTGGTGTTAGATATCTTTGTTGCCATGATTTCTGCCATTGTTGGTGTAATTATGGGCGTGCTCCGGGGAAGGACGATTGTATTATCAAAGAAGTGAAATAGGATTATGAATTTTCCTACGCCTATCCTGGTTATAATACCAAGGAGTAAGTTTAACAGTTATTAACAATAAAGCGGGTCATAGTGAGGTACATGGCTTCATGTTACCCAGGGATGGCTTTGCCTTTTGTGAGAGGGAATATATGTTAGGGAAGGATATATTGCACCTGAATAGCGGGGCAAGTGACATTGCAATTGTCGGA (double strand) [zmsA promoter] | binds |  |  | 
ACCACCGCAAAGGTTCTTACCTGCTGCTCAATCAGACGGATAACCGTCGTGCAGTCAGCAGTCAGGTCACCTCGTTTGTTCAGCAACGCATGGCGGACAAACTGATAGGCAGTGTGCACCGCGATGAAAGCGTGGCGGAAGCCAATGCTTCACAACGCTCTATTTTTGATTTCAGCCCGGTGTCTGCCGCTGCATTTGATATCGAACTGATTGGAAAGCGCGTTGCTGCGCTGCTGGATATTCGAATCGGGAATGGAGAAGTTCACGCCGATCTGCCAGCCTATCAGACTGTAATGAACCACTAGTCGCCGGTTCCGGCTATATTTGTGAAGAAATTGATATTCTCCGGCTGGTTTTCCCGGCACAAGGTGTGTGCGCGCAAATATTTTCCATCAATTAAATATCAGGATAATCGATG (double strand) [bcsA promoter] |  | binds | binds | 
CAACGAAGGCTGTTCTATTCCAATCGCCTTGGCAAGTTGAATTTGGGACTGCCCCGGGGGCAGTTGGTGAATATTATGCAGCGTGACCCAGTGAGTTTGAGTGAGCTCTAGAGGCTTCAATCGATGATCAATCAAAGCACGCCATACACGAACCAACCGAGCTAAATCAGAACCTAACGGCAATTCCATCACCTCTCCTTATAGTTAGCATACTAAGCAACTTCCCTGGATTGCAATCAACTCTGATTTAAAACGAAAGTTTTATAAAAAGGTCTTATTGTTATCTATCTATTCTAGCAAATAATAATTAATTAAAAATGATCTTGAACTTAATTTATGCCATTAAATATCACCATGTCGATTAAAACAGGGTCGGCT (double strand) [slyA promoter] |  | binds | binds | 
CACAAGCGGGTGCGTTTGAATGATCTCATTTTTTCTGTCCATAAATACCCCTTATTAACTAGTTACTACCGTGAGTGACTAAACGAGGTTTAAGACGGCTCTTGTACCTGAGCAATATCAGTATATCTCTGTCGGATTCATTTATGGAAATTAAATGTAAAAAAAACTCAAGTGGATGTTTCGATTAATTATCCAGCAAAATGAGCGCTGTGATTTGAACGAAAATAGTACAGTGCGTTAATGTAAGACGGCGAGGTAGTACGACATCTTACCGAAGAAACGAAAAGGTCAGACGAGATGTCTGACCATTGGGTAACCGGTGCGGATAGAAAAAGGAGATTACTCGCTTTGAACAAACCAGTCGTCAGCGCTTTCCCAAGTCTCTTGCAGGATTTCCGATATTTTCTCTCTGTCGTCTTTACTGCCGCCCAAAACGCTCAGGTTATTCGAGGCGGCATAA (double strand) [bssS promoter] | binds |  |  | 
CATGTGACTCCTTTGAGTGGATTATATTCGCGATTTAAATCGCCAGATATTAAATCGTACACTATTTAATTGGTGGTAAAAAAACGCGTCCAATCAGCACGCGTTACATCATATCGACTCATCAAATATGTCTGATGAGGCTGGCTCGCAGCGTTTCCAAATCATGCTTGATAGCACGCAACTGCTCGATATTGCATTCTGACGCGCAGAACACACCTTCTGGTACGGCCTTCGCTTTGGTCTGCAATGCACGCCCGTCGTCGGTGAGCTCAATCAGCACCTGACGTTCGTCTTGCGTGCCACGACGGCGCGTCACCAACCCTGCGGTTTGCAGACGCTTAAGCAGCGGCGTCAGCGTGGCAGAATCCAGAAACAGACGCTCACCCAGTTCAG (double strand) [ohrR promoter] |  |  |  | binds
AGTTCTGTCAGCTCTTTTTCTGTTTACGCAAGATTTTCAAAATATGCCTTCAACGCCTCCAGCTGTTCGCTGGCGTCCTCTATGGCGTTGAATGTGCGCCTAAACTGGTCGTTTGGGGCGTGCTCCTGGAGATACCAGGACACGTGCTTACGTGCTATACGAAATCCCTTGCCTGGACCATAAAAGTCGTGCAATTCCCGTATATGCCCGATCAACAAGTGCTTGACCTCTGCCAGTGGCAGGGGCGGCAGCAACTCCCCTGTGTCCAGATAATGCTGGATTTCCCGAAAGATCCAGGGTCTTCCCTGAGCAGCTCGTCCTATCATCAGGGCATCAGCCCCGGTGTAATCAAGAACCGCTCTGGCTTTGCGCGGGTCAGTAATGTCGCCATTCGCGATAACGGGAATGGAAACACTCTGC (double strand) [fis promoter] |  |  |  | binds
